# Source: PubChem BioAssay AID588499 (NMMLSC, 2011)
# Among all 360,000 compounds or so, about 610 (0.17%) were called active. The inconclusive results got no clear call from the source; some entries with a clear call stand among them for comparison. Rule as the data show it: active = inhibition above about 30%; inconclusive = no clear call, values can overlap the other calls; inactive = below that.
# Test system: Botulinum neurotoxin type A light chain protease (Clostridium botulinum A str. ATCC 3502)
# Experiment: blockers of BoNT/A LC substrate cleavage – biochemical, flow cytometry, MLPCN library, primary screen (AID 588499); also: plate controls were buffer without enzyme for full effect and enzyme alone for no effect
# Conditions: multiplex microsphere protease substrate cleavage, at 10 µM, active compounds read high
row,SMILES,inhibition
1,COc1ccc(OC)c(CN2C(=O)CCC2(C)C(=O)NC2CCCCCC2)c1 (configuration not stated),inconclusive: -0.9%
2,O=C(O)CN1C(=O)CC(Cc2ccccc2)C1=O (configuration not stated),inconclusive: 1.7%
3,CCC(C)(C(=O)NC1CCCC1)N(C(=O)c1cnccn1)c1c(C)n(C)n(-c2ccccc2)c1=O (configuration not stated),inconclusive: 2%
4,CCSC1=C(C#N)C2(CCCCC2)C(C#N)C(=O)N1 (configuration not stated),inconclusive: 0.3%
5,Nc1ccc(N2CCCCC2)c2nonc12,active: 33.2%
6,OCCNc1nc(C2CC2)nc2c1nnn2Cc1ccccc1Cl,inconclusive: -0.4%
7,Cc1ccc2nc3sc(C(=O)NCc4ccco4)c(N)c3cc2c1,inactive: 1%
8,CCOC(=O)c1c(O)c2ccccc2n(CC)c1=O,inactive: -0.1%
9,Cc1ccc(CSCC(=O)Nc2ccc(N3CCOCC3)cc2N2CCOCC2)cc1,inconclusive: -0.1%
10,CS(=O)(=O)Nc1ccccc1-c1cccc2nccn12,inactive: 0%
11,COc1ccc(CN2CCCC(C(=O)c3cccc(Cl)c3)C2)cc1 (configuration not stated),inconclusive: -1.7%
12,OC[C@@H]1CN(Cc2ccc3c(c2)OCO3)C[C@H](n2cnc3c(NC4CCCC4)ncnc32)O1,inactive: 0.3%
13,COc1ccc(C(C(=O)NCCC(C)C)N(CCO)C(=O)c2snc(C(N)=O)c2N)cc1 (configuration not stated),inactive: -0.6%
14,NC(=O)c1cccc(CC(=O)c2ccccc2)c1,inconclusive: -4.6%
15,COCCNC(=O)c1ccc(NC(=O)C2(c3ccccc3)CCCC2)cc1,inactive: -1.2%
16,Cc1ccnc(N2CCC(C(=O)NCc3ccc4c(c3)OCO4)CC2)n1,inconclusive: 3.5%
17,CCCN1CCN(C(=O)C2CCN(c3nnc(C)c4c(C)n(-c5ccc(C)cc5)nc34)CC2)CC1,inconclusive: 0.7%
18,O=C(CN1C(=O)NC(Cc2ccccc2)(Cc2ccccc2)C1=O)NCC1CCCCC1,inconclusive: 1.6%
19,COc1cccc(/C=N/n2c(=S)n(C)c3cc(C)c(C)cc32)c1OC,inconclusive: -0.4%
20,Cc1ccc(C)c(COc2coc(CN3CCN(C(=O)c4ccco4)CC3)cc2=O)c1,inconclusive: 6.8%
21,O=C(C[n+]1ccc(C(=O)c2ccccc2)cc1)Nc1ccccc1OC(F)F,active: 54.9%
22,O=C(CN1C(=O)CCOc2ccccc21)Nc1cccc(S(=O)(=O)N2CCOCC2)c1,inactive: 0%
23,Cc1nc(SCC(=O)Nc2ccc(Cl)cc2[N+](=O)[O-])nc(C)c1C,inactive: -1.3%

row,SMILES,inhibition
1,CCCN(CCC)S(=O)(=O)c1ccc(C(=O)OCCN2C(=O)c3cccc4c(N5CCOCC5)ccc(c34)C2=O)cc1,active: 37.4%
2,O=C(NC1(C(F)(F)F)NC(=O)N(Cc2cccnc2)C1=O)c1ccccc1 (configuration not stated),inactive: -4.2%
3,COc1cccc(-c2nc(CS(=O)CC(=O)N3CCC4(CC3)OCCO4)c(C)o2)c1 (configuration not stated),inconclusive: -2.6%
4,Clc1cccc(Cl)c1-c1noc(CN2CCOCC2)n1,inconclusive: 9.7%
5,CCOC(=O)C(=CNc1cccnc1Oc1ccc(C)c2c1CCC2)C(=O)OCC,inconclusive: -41.8%
6,Nc1cccc(Oc2ccc3c(c2)C(=O)NC3=O)c1,inconclusive: -2.7%
7,Cc1[nH]c2ccccc2c1C(=O)C(C)OC(=O)c1ccccc1NCCO (configuration not stated),inactive: -5.7%
8,COc1ccc(NC(=S)NC(=O)c2cncc(Br)c2)cc1,inconclusive: 6.6%
9,Cc1nc(COc2ccccc2Cl)sc1-c1ccnc(N)n1,inconclusive: 16.3%
10,COc1ccc(N(CC(=O)NCc2ccco2)S(=O)(=O)c2ccc(OC)c(OC)c2)cc1,inconclusive: 1.4%
11,Cc1ccc(C(=O)Nc2nc(=O)n(C)s2)cc1,inconclusive: 0.5%
12,Nc1nc(=S)c2ncn([C@@H]3O[C@H](CO)[C@@H](O)[C@H]3O)c2[nH]1,inactive: -0.9%
13,COc1ccc(NC(=O)CSc2nnc(-c3cccs3)n2C)cc1OC,inconclusive: -0.4%
14,CCn1c(O)c(/C=C2\C=NN=C2c2ccccc2)sc1=S,inconclusive: 5.2%
15,CS(=O)(=O)N1Cc2ccccc2CC1C(=O)OCC(=O)Nc1ccc2ccccc2c1 (configuration not stated),inconclusive: -2.6%
16,Cc1ccc(NC(=S)NC(=O)c2c(-c3ccccc3Cl)noc2C)cc1,inconclusive: -0.6%
17,Cc1onc(-c2ccccc2)c1-c1ccnc(N)n1,inconclusive: 4.5%
18,CCC1=[N+](CC(=O)c2ccc(Br)cc2)CCn2c(C)ccc21,inconclusive: 32.4%
19,Cc1ccc(S(=O)(=O)N2CCCCC2)cc1C(=O)N(C)CC(=O)Nc1cccc(F)c1,inconclusive: -1.9%
20,COc1ccc(CN2CCc3ccccc3C2)c(OC)c1,inconclusive: -34.4%
21,O=C(Nc1ncn[nH]1)c1ccc(Cl)c(Cl)c1,inactive: -0.1%
22,CCC(=O)N1N=C(c2ccc(NS(C)(=O)=O)cc2)CC1c1ccc(C)cc1 (configuration not stated),inconclusive: 13.8%
23,O=C(CN1C(=O)NC2(CCc3ccccc32)C1=O)c1ccc(Br)cc1 (configuration not stated),inconclusive: -3.6%

row,SMILES,inhibition
1,O=C(c1ccc(Cl)cc1)N1N=C(c2ccccn2)CC1(O)C(F)(F)F (configuration not stated),inconclusive: -7.4%
2,O=C(/C=C/c1ccc(F)cc1)NC(=S)N1CCCCC1c1cccnc1 (configuration not stated),inconclusive: -3.5%
3,CCC1(c2ccc(F)cc2)NC(=O)N(CC(=O)c2cc(C)n(C3CC3)c2C)C1=O (configuration not stated),inconclusive: 2.7%
4,CC(C)n1c2ccccc2c2nc3ccccc3nc21,active: 54.8%
5,CC1=C(CC(=O)c2ccccc2)C(=O)c2ccccc2C1=O,inconclusive: 9.4%
6,CCc1noc(C)c1C(=O)Nc1nc2ccc(OC)cc2s1,inconclusive: -7.3%
7,Cc1cc2cc(CNC(=O)c3ccc4c(c3)OCO4)ccc2n1C,active: 64.7%
8,COc1ccccc1N=Nc1c(C)noc1C,inconclusive: -47.4%
9,Cc1cccc(NS(=O)(=O)c2ccc(C)c(C(=O)NCCCN3CCOCC3)c2)c1,inconclusive: -8.1%
10,CCOC(=O)c1nnn(-c2nonc2N)c1CNC(C)C,inconclusive: 2.2%
11,CCCCc1oc2c(c(=O)c1C)C(=O)CC(c1ccccc1)C2 (configuration not stated),inactive: 0.7%
12,O=C1/C(=C/c2ccc([N+](=O)[O-])cc2)CCC1C1CCCC1 (configuration not stated),inactive: 4.1%
13,CN(C)c1nc(N(C)C)nc(N2CCCCC2)n1,inconclusive: 4.5%
14,O=C(Cc1ccc(NC(=O)C2CCCN(C(=O)CCc3ccccc3)C2)cc1)Nc1cccc(C(=O)N2CCCC2)c1 (configuration not stated),inactive: 0%
15,CC(C)CC(NC(=O)c1ccc(Cl)cc1)C(=O)O (configuration not stated),inconclusive: 2.5%
16,NC(=O)c1ccc(Oc2ccc(Cl)cc2)c([N+](=O)[O-])c1,inconclusive: -5.8%
17,Cc1ccc(Cn2ccc(NC(=O)c3cc(-c4ccc(Cl)cc4)on3)n2)cc1,inconclusive: 1.3%
18,CSCC(=O)Nc1ccc(F)c(Cl)c1,inconclusive: -50%
19,CSc1ccccc1NC(=O)c1cc(-c2cccs2)on1,inconclusive: -0.8%
20,COc1ccccc1-c1ccc(SCc2ccccc2)nn1,active: 32.5%
21,N/C(=N\OC(=O)c1ccc(Cl)cc1)c1ccccn1,inconclusive: 7.3%
22,COCCN(C(=O)COC(=O)c1cc(C)n(-c2ccccc2)c1C)c1c(N)n(Cc2ccccc2)c(=O)[nH]c1=O,active: 59.9%
23,Cc1ccc(C(=O)CSc2nnc(-c3c[nH]c4ccccc34)o2)cc1,inconclusive: 4.1%

row,SMILES,inhibition
1,CN(C)CCNC(=O)c1cc2cc(Br)ccc2oc1=O,inactive: -0.6%
2,S=c1[nH]nc(-c2ccn[nH]2)n1-c1ccccc1Cl,inconclusive: 9.9%
3,CC(C(=O)N1CCc2ccccc2C1)N1C(=O)c2ccccc2C1=O (configuration not stated),inconclusive: -2.9%
4,O=C(CN1C(=O)c2ccccc2S1(=O)=O)Nc1ncc([N+](=O)[O-])s1,inconclusive: 6.1%
5,CC(C)Nc1nc(Cl)nc(NC2CCCCC2)n1,inconclusive: -4.2%
6,COc1ccccc1-c1ccc(=O)n(CC(=O)Nc2ccc(C(=O)N3CCCC3)cc2)n1,inconclusive: 11.7%
7,Cc1ccccc1-c1nc(CN2CCC(C(=O)NCc3cccnc3)CC2)c(C)o1,inconclusive: 2%
8,O=c1c2ccccc2sn1-c1nccs1,active: 102%
9,COC(=O)Cc1c(C)c2ccc(OC(C)C)cc2oc1=O,inactive: 0.3%
10,COc1cccc(NC(=O)N(C)C[C@H]2Oc3ncc(Br)cc3C(=O)N([C@H](C)CO)C[C@H]2C)c1,inactive: -0.2%
11,O=C(O)CSc1nnc(-c2ccncc2)n1-c1ccc(Cl)cc1,inactive: 0.3%
12,C=CCSc1nc(-c2ccc3c(c2)OCO3)cc(C(F)(F)F)c1C#N,active: 30.7%
13,CCN(CC)CCCN1C(=O)C(O)=C(C(=O)c2cc3cccc(OC)c3o2)C1c1ccncc1 (configuration not stated),inconclusive: 5.4%
14,O=c1c2cc(F)ccc2sn1-c1ccccc1,active: 34.9%
15,CCOc1ccc(/C=N/n2cnnc2)cc1,inconclusive: -3.7%
16,CCCCNc1c2c3c(cccc3n(C)c1=O)C(=O)c1ccccc1-2,active: 74.4%
17,COc1ccc(N=c2oc3cc(O)ccc3cc2C(=O)NCC2CCCO2)cc1 (configuration not stated),inconclusive: 0.4%
18,COc1ccc(Oc2nnnn2-c2ccccc2)cc1,inconclusive: -1.6%
19,Cc1cc(C)c(C#N)c(SCC(=O)Nc2ccccc2C(N)=O)n1,inconclusive: -0.6%
20,O=S(=O)(Nc1cc2nc3ccccc3nc2n1Cc1ccccc1)c1ccc(Cl)cc1,active: 32.8%
21,Cc1ccc(N2C(=O)NC(=O)/C(=C/c3ccc(OC(=O)c4cccs4)cc3)C2=O)cc1,inconclusive: -6.2%
22,Cc1ccc(N2CC(C(=O)Nc3nnc(SCCC4OCCO4)s3)CC2=O)cc1 (configuration not stated),inactive: 0.8%
23,C=CCn1c(SCC(=O)N(CC)CC)nc(O)cc1=O,inconclusive: -0.2%

# Individual results from the entries so far:
# Entry of `Cc1cc(C)c(C#N)c(SCC(=O)Nc2ccccc2C(N)=O)n1` under inhibition: inconclusive: -0.6%
# Entry of `COC(=O)Cc1c(C)c2ccc(OC(C)C)cc2oc1=O` under inhibition: inactive: 0.3%
# Entry of `Cc1ccc(C(=O)CSc2nnc(-c3c[nH]c4ccccc34)o2)cc1` under inhibition: inconclusive: 4.1%
